Reference: PubChem BioAssay AID602196 (INSERM, 2012)

Test: 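Modifiers of cisplatin sensitivity in A549 cells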
Cells: human A549 lung cancer cells
Reagent: siRNA pair against human genes
Time to read-out: 48 h transfection before cisplatin; time from cisplatin to read-out not stated
Challenge: cisplatin at a dose killing half of control-siRNA cells; exact dose and duration not given
Detection: 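Shift in cisplatin death relative to control siRNA, from -50 (all cells die) to +50 (no cells die); siRNAs harmful on their own scored 0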
Reading the numbers: two-siRNA summed score (-2 to +2): higher = both siRNAs protect from cisplatin killing; -2 means both sensitise; mean protection from cisplatin (shift in death) and protection from cisplatin (shift in death), siRNA C: higher = protection from cisplatin killing
Call rule: 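siRNAs harmful alone (LDH or WST-1) get 0; others get +1 for less and -1 for more cisplatin killing; genes are active when the two siRNAs give the same sign, summing to ±2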
Meaning of the calls: active = both siRNAs shift cisplatin killing the same way; inactive = no consistent shift, or siRNA harmful alone
Here is one part, drawn at random, of about 23,000 reagents. Of all reagents, 455 (2%) got an active call. 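Active includes both protection and sensitisation; some change values fall well beyond the stated -50 to +50 range.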 Reagents against one gene are numbered here. Not all columns of the deposit are shown. Not given: the amount of reagent.

Gene,reagent no.,two-siRNA summed score (-2 to +2),mean protection from cisplatin (shift in death) (%),"protection from cisplatin (shift in death), siRNA C (%)",call
PDCD4 (programmed cell death 4),1,-1,-11.7,-28.5,inactive
EXOC6B (exocyst complex component 6B),1,0,9.2,10.6,inactive
PTPRK (protein tyrosine phosphatase receptor type K),1,0,-3.9,2.6,inactive
CGGBP1 (CGG triplet repeat binding protein 1),1,1,21.7,12.1,inactive
MMP13 (matrix metallopeptidase 13),1,-1,-8.7,2.9,inactive
"ADH1A (alcohol dehydrogenase 1A (class I), alpha polypeptide)",1,0,-4.6,-0.2,inactive
RBX1 (ring-box 1),1,0,-7.8,-8.8,inactive
"DEGS1 (delta 4-desaturase, sphingolipid 1)",1,-1,-14.9,-9,inactive
XPO7 (exportin 7),1,0,-13.2,-11.5,inactive
TM6SF1 (transmembrane 6 superfamily member 1),1,0,13,31.6,inactive
ACTR8 (actin related protein 8),1,0,-2.9,4.5,inactive
LOC128208,1,0,4.2,7.3,inactive
ZNF781 (zinc finger protein 781 (pseudogene)),1,0,7.9,3.4,inactive
LOC388279,1,0,-1.4,-3,inactive
SCGB3A2 (secretoglobin family 3A member 2),1,0,2.7,5.5,inactive
LOC392374,1,0,18.3,1,inactive
ZNF19 (zinc finger protein 19),1,0,-1.7,-3,inactive
GATA5 (GATA binding protein 5),1,0,-9.2,-9.7,inactive
LOC441493 (retired record),1,0,-1.8,5.1,inactive
RRS1 (regulator of ribosome synthesis 1),1,1,13.4,8.2,inactive
ZNF80 (zinc finger protein 80),1,2,17.5,22.6,active
POMT2 (protein O-mannosyltransferase 2),1,0,5.2,5.1,inactive
"CDIPTOSP (CDIP transferase opposite strand, pseudogene)",1,0,7.9,7.5,inactive
"RELB (RELB proto-oncogene, NF-kB subunit)",1,0,7.5,10.6,inactive
USP32 (ubiquitin specific peptidase 32),1,0,-9.9,6.2,inactive
LOC441795,1,1,9.4,14.4,inactive
TAFA3 (TAFA chemokine like family member 3),1,0,14.5,1.5,inactive
TBCCD1 (TBCC domain containing 1),1,0,8.2,11.2,inactive
LOC440308,1,0,10.2,9.1,inactive
KDM4D (lysine demethylase 4D),1,0,2.6,8.6,inactive
FASTKD3 (FASTK mitochondrial RNA regulator 3),1,0,-3.7,-2.2,inactive
CEACAM7 (CEA cell adhesion molecule 7),1,1,13.5,8.5,inactive
GEMIN7 (gem nuclear organelle associated protein 7),1,0,8.8,3.5,inactive
MRTFB (myocardin related transcription factor B),1,0,-2.2,8.6,inactive
SLC25A51,1,0,3.2,-1.1,inactive
LOC440148,1,1,15.3,4.3,inactive
PARP16 (poly(ADP-ribose) polymerase family member 16),1,0,18,27.8,inactive
NKX6-1 (NK6 homeobox 1),1,0,2.5,16.5,inactive
LEMD3 (LEM domain containing 3),1,0,4.4,8.6,inactive
SLC16A9,1,2,21.6,14.1,active
CAMK2N2 (calcium/calmodulin dependent protein kinase II inhibitor 2),1,0,-2.2,11.1,inactive
EDEM1 (ER degradation enhancing alpha-mannosidase like protein 1),1,0,-3.3,1.4,inactive
MUL1 (mitochondrial E3 ubiquitin protein ligase 1),1,2,26.7,28.9,active
TOR1AIP2 (torsin 1A interacting protein 2),1,0,-1.1,2,inactive
TOR1AIP2 (torsin 1A interacting protein 2),2,0,2.1,-9.7,inactive
LETM1,1,2,18.9,18.4,active
MGC4368,1,0,-1.2,-6,inactive
LOC441307,1,0,13.5,20.3,inactive
DIO3 (iodothyronine deiodinase 3),1,0,14.4,17.3,inactive
LMO7 (LIM domain 7),1,0,10.1,15.1,inactive
TEX261 (testis expressed 261),1,0,-2.1,-8.9,inactive
UGT1A5 (UDP glucuronosyltransferase family 1 member A5),1,0,4.6,3.5,inactive
AHCTF1 (AT-hook containing transcription factor 1),1,0,-6.6,1,inactive
DERL3 (derlin 3),1,0,6.9,8.6,inactive
DMRTC1 (DMRT like family C1),1,0,5.3,9.9,inactive
MRAP (melanocortin 2 receptor accessory protein),1,0,1.1,-6.7,inactive
IDH3A (isocitrate dehydrogenase (NAD(+)) 3 catalytic subunit alpha),1,0,-7.8,-8.1,inactive

3 of these entries, reformatted.
RELB (RELB proto-oncogene, NF-kB subunit)
- two-siRNA summed score (-2 to +2): 0
- mean protection from cisplatin (shift in death) (%): 7.5
- protection from cisplatin (shift in death), siRNA C (%): 10.6
- call: inactive

USP32 (ubiquitin specific peptidase 32)
- two-siRNA summed score (-2 to +2): 0
- mean protection from cisplatin (shift in death) (%): -9.9
- protection from cisplatin (shift in death), siRNA C (%): 6.2
- call: inactive

LOC441795
- two-siRNA summed score (-2 to +2): 1
- mean protection from cisplatin (shift in death) (%): 9.4
- protection from cisplatin (shift in death), siRNA C (%): 14.4
- call: inactive
